Measurements reported in PubChem BioAssay AID1259425 (University of Nebraska Medical Center, 2018).
Test: 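Seek colon cancer weak points whose silencing resembles KSR1 loss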 (primary screen). System: HCT116 human colon cancer cells. Reagents: siRNA pool against human genes, 50 nM siRNA. Measurement: 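After 50 nM siRNA pool, branched-DNA assay measures six marker transcripts per well, minus blank, normalised to the geometric mean of two housekeeping transcripts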. Direction: BNIP3L mRNA: higher = more BNIP3L transcript after knockdown; NDRG1 mRNA: higher = more NDRG1 transcript after knockdown; BNIP3 mRNA: higher = more BNIP3 transcript after knockdown; ALDOC mRNA: higher = more ALDOC transcript after knockdown; ACSL5 mRNA: higher = more ACSL5 transcript after knockdown.
Here is a random part of about 14,000 reagents. Not stated in the record: the time to read-out.

gene knocked down,"BNIP3L mRNA, set 1","NDRG1 mRNA, set 1","BNIP3 mRNA, set 1","ALDOC mRNA, set 1","ACSL5 mRNA, set 1"
FANCI (FA complementation group I),0.0646,0.452,0.341,0.018,0.302
IRF5 (interferon regulatory factor 5),0.134,0.0982,0.37,0.00992,0.0887
TCEA3 (transcription elongation factor A3),0.108,0.14,0.346,0.0164,0.207
UBA6 (ubiquitin like modifier activating enzyme 6),0.0986,0.175,0.281,0.0183,0.126
IL6 (interleukin 6),0.104,0.128,0.31,0.0327,0.0833
LIG4 (DNA ligase 4),0.0478,0.127,0.216,0.0205,0.137
B2M (beta-2-microglobulin),0.0717,0.168,0.382,0.0403,0.111
ETNK1 (ethanolamine kinase 1),0.0644,0.0621,0.291,0.00828,0.193
TNRC6A (trinucleotide repeat containing adaptor 6A),0.128,0.148,0.288,0.0555,0.201
RORB (RAR related orphan receptor B),0.0717,0.105,0.281,0.0384,0.109

Continued; the last 2 above are carried over.
gene knocked down,"BNIP3L mRNA, set 1","NDRG1 mRNA, set 1","BNIP3 mRNA, set 1","ALDOC mRNA, set 1","ACSL5 mRNA, set 1"
TNRC6A (trinucleotide repeat containing adaptor 6A),0.128,0.148,0.288,0.0555,0.201
RORB (RAR related orphan receptor B),0.0717,0.105,0.281,0.0384,0.109
ZNF652 (zinc finger protein 652),0.0524,0.23,0.229,0.0777,0.158
MCPH1 (microcephalin 1),0.137,0.216,0.368,0.0239,0.319
C6orf15 (chromosome 6 open reading frame 15),0.0379,0.162,0.278,0.0283,0.161
"SEC22A (SEC22 homolog A, vesicle trafficking protein)",0.127,0.246,0.215,0.0322,0.216
ATM (ATM serine/threonine kinase),0.144,0.133,0.213,0.00424,0.151
BLNK (B cell linker),0.201,0.0751,0.659,0.0245,0.327
GFI1 (growth factor independent 1 transcriptional repressor),0.137,2.4,0.578,0.0229,0.697
"PCDHGA6 (protocadherin gamma subfamily A, 6)",0.121,0.128,0.241,0.0398,0.27
XRCC2 (X-ray repair cross complementing 2),0.121,0.275,0.146,0.0146,0.124
MAGEA8 (MAGE family member A8),0.0575,0.617,0.323,0.00814,0.208
